Results from PubChem BioAssay AID1671190 (National Center for Advancing Translational Sciences (NCATS), 2021).
Hit rate of the full screen: of about 580,000 compounds, about 6,100 (1.1%) were called active. This list was built around the results that the source calls inconclusive (neither active nor inactive); the mix of calls is not that of the screen. Calls follow the shape of the dose curve; as a rule, active = well fitted inhibition curve with a large enough effect; inconclusive = small, poorly fitted or top-dose-only effect, or another doubt; inactive = no such curve, though single readings can be large or run the other way. Potencies beside an inconclusive call are fits to weak or partial responses and may not hold up.

By UniProt entry, the sequences of proteins in these tests, tags left out. Where a name states a change or a piece, a line headed by the entry shows the natural chain unless it says otherwise.
UniProt P18054: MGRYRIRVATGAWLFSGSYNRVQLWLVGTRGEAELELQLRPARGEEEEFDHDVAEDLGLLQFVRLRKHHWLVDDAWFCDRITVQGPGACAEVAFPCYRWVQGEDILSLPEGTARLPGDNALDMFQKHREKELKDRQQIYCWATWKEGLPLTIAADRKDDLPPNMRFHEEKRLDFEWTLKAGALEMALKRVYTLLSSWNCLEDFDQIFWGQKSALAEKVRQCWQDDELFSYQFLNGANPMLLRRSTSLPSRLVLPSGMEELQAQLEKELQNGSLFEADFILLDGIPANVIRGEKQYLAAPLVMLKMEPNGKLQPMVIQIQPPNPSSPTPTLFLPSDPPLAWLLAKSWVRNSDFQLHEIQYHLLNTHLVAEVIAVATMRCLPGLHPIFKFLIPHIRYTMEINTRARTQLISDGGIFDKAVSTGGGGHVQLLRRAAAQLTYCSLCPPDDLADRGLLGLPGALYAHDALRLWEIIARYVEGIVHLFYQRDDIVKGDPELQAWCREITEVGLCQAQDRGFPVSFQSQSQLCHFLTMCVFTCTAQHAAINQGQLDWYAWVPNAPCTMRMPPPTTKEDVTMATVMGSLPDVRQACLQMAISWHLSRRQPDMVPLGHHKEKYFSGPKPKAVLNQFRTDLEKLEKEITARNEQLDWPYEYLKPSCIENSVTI

Molecular target: Polyunsaturated fatty acid lipoxygenase ALOX12 (Homo sapiens) (UniProt P18054)
Assay: Primary qHTS assay for inhibitors of human arachidonate 12S-lipoxygenase (ALOX12): Round 2
Settings: purified 12hLO, xylenol orange hydroperoxide absorbance; series mostly up to 108 µM
Method in brief: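 Purified human 12hLO at 150 nM in 25 mM Hepes, 0.01% Triton X-100, pH 7.0, preincubated 15 min at room temperature with compound. Reaction started with 40 uM arachidonic acid, 30 min at room temperature. Hydroperoxide measured by Fe-xylenol orange, 573/405 nm absorbance ratio.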
Potency is read from the fitted curve at half-maximal effect.

SMILES	Potency
CC(C)C(NC(=O)/C(=C/c1ccco1)NC(=O)c1ccc(Br)o1)C(=O)O (configuration not stated)	inconclusive: 5.01 µM [inhibitor, full curve, poor fit]
O=C1Nc2ccc3c(c2C1=Cc1cc2c(cc1Br)OCO2)OCO3	inconclusive: 89.1 µM [inhibitor, single point]
N#Cc1ccc(C(=O)N2CCCCC2c2cc(C(=O)Nc3ccccc3Cl)no2)cc1 (configuration not stated)	inconclusive: 100 µM [inhibitor, single point]
O=C(COc1ccccc1Cl)N1CCCC(O)(CN2CCCC2)C1 (configuration not stated)	inactive
CCn1c(SCC(=O)c2[nH]c(C)c(C(C)=O)c2C)nnc1-c1cccs1	inactive
COc1ccc(C2NC(=S)NC3=C2CCCC3=C2SCCS2)cc1 (configuration not stated)	inconclusive: 50.1 µM [inhibitor, partial curve, poor fit]
OCCN1CN=C(Nc2nc3ccccc3o2)NC1	inconclusive: 31.6 µM [inhibitor, single point]
Cc1cccc(NS(=O)(=O)c2c(C)noc2C)c1	inactive
CCOC(=O)C1=C(CN2CCN(c3ccc(OC)cc3)CC2)NC(=O)NC1c1ccc(OC)cc1 (configuration not stated)	inconclusive: 0.355 µM [inhibitor, full curve, poor fit]
Cc1ccc(Nc2nc3nonc3nc2Nc2cccc(C(F)(F)F)c2)cc1Cl	inconclusive: 25.1 µM [inhibitor, partial curve, poor fit]
COc1cc2c(cc1OC)C(c1ccc(Cl)c(Cl)c1)C1=C(CCCC1=O)N2 (configuration not stated)	inconclusive: 31.6 µM [inhibitor, partial curve]
CN(C(=O)CSc1nnc(-c2ccccc2)o1)c1c(N)n(Cc2ccccc2)c(=O)[nH]c1=O	inconclusive: 35.5 µM [inhibitor, single point]
Cc1cc(C)cc(C2CC(C)(O)CC(c3cc(C)cc(C)c3)S2)c1 (configuration not stated)	inconclusive: 89.1 µM [inhibitor, single point]
C#CCNC(=O)C1=NOC2CN(C(=O)Nc3cccnc3)CC12 (configuration not stated)	inconclusive: 35.5 µM [inhibitor, full curve, poor fit]
Cc1ccc(C)c2nc3sc(C(=O)N4CCCc5ccccc54)c(N)c3cc12	inconclusive: 79.4 µM [inhibitor, partial curve, poor fit]
CNS(=O)(=O)c1cc(S(=O)(=O)NC)c2cccc3c2c1NC3=O	inconclusive: 100 µM [inhibitor, single point]
CN1CCN(NC(=O)c2cc(-c3ccc(Cl)s3)nc3ccccc23)CC1	inactive
CC(C)C(=O)N1CCN(c2nc3c(s2)CC(C(=O)NCc2ccco2)CC3)CC1 (configuration not stated)	inactive
Cc1ccc(Cl)cc1NC(=S)NN	inconclusive: 3.16 µM [inhibitor, full curve, poor fit]
O=S(=O)(NCC(c1ccco1)N1CCc2ccccc2C1)c1ccc(F)cc1 (configuration not stated)	inconclusive: 39.8 µM [inhibitor, partial curve, poor fit]
O=C(O)CCCCCCNS(=O)(=O)Cc1ccccc1	inactive
COCCCNc1c2c3c(cccc3[nH]c1=O)C(=O)c1ccccc1-2	inconclusive: 70.8 µM [inhibitor, partial curve, poor fit]
Cc1cc(N2CCC(C)CC2)nc(-c2ccccc2O)n1	inactive
Cc1ccc(-c2csc(N)c2C#N)c(C)c1	active: 22.4 µM

SMILES	Potency
CC(C)c1ccc(NC(=O)Cn2nc3ccc(S(=O)(=O)C(C)(C)C)nn3c2=O)cc1	inconclusive: 79.4 µM [inhibitor, single point]
CCN(CC)C(=O)Oc1ccc2c(=O)c(-c3ccc(Br)cc3)coc2c1	inconclusive: 100 µM [inhibitor, single point]
COc1ccc(CN2C(=O)CO[C@H]3CN(Cc4ccc5c(c4)OCO5)C[C@H]32)cc1	inconclusive: 89.1 µM [inhibitor, partial curve]
COc1ccc(S(=O)(=O)N(C)C[C@H]2Oc3ccc(NC(=O)Cc4ccccc4)cc3C(=O)N([C@H](C)CO)C[C@@H]2C)cc1	inactive
CN(CC(=O)Nc1ccccc1Cl)Cc1csc(-c2ccccc2)n1	inactive
O=C(CCNS(=O)(=O)c1ccc2[nH]c(=O)ccc2c1)N1CCN(c2ccc(Cl)cc2)CC1	inactive
O=c1cc(CSc2nnc3ccccn23)c2c(ccc3ccccc32)o1	inactive
CCOc1ccccc1CNC(=O)c1cc2n(n1)CC(c1ccc(Cl)cc1)OC2 (configuration not stated)	inactive
CCCN1CCN(C(=O)c2ccc(S(=O)(=O)N(C)c3ccccc3OC)cc2)CC1	inconclusive: 44.7 µM [inhibitor, partial curve, poor fit]
COc1ccc(-c2nn3c(-c4ccc(F)cc4)nnc3s2)cc1	inactive
Cc1cc(S(=O)(=O)N2CCCC(N(C)CCc3ccccn3)C2)c(C)s1 (configuration not stated)	inconclusive: 39.8 µM [inhibitor, partial curve, poor fit]
O=C1C(=O)N(c2ccccn2)C(c2cccc([N+](=O)[O-])c2)/C1=C(/O)c1ccc(Br)cc1 (configuration not stated)	inconclusive: 44.7 µM [inhibitor, partial curve, poor fit]
Cc1cc(Nc2ccccc2F)n2nc(-c3ccccc3)nc2n1	inactive
O=c1cc(CN2CCN(c3ccc(O)cc3)CC2)nc2scc(-c3ccccc3)n12	inconclusive: 22.4 µM [inhibitor, single point]
COCCNC(=O)[C@@H]1Cc2cn(Cc3ccncc3)c3cccc(c23)[C@H](CC(C)C)N1	inactive
COc1ccc(N(C(=O)c2cnccn2)C(C(=O)NC2CCCCC2)c2ccc(O)cc2)cc1 (configuration not stated)	inconclusive: 112 µM [inhibitor, partial curve, poor fit]
COC(=O)c1ccc(Cl)cc1NC(=O)N1CC2CCCN2c2ccccc21 (configuration not stated)	inactive
Cc1cccc(OCCN2CCC(CO)CC2)c1	inconclusive: 112 µM [inhibitor, single point]
C[C@@H](CCc1ccc(O)cc1)NCCc1ccc(O)c(O)c1	inconclusive: 12.6 µM [inhibitor, partial curve, poor fit]
COc1ccc2c(c1OC)C(=O)N1N=C(c3ccc(Cl)cc3)CC21 (configuration not stated)	inactive
c1ccc(Cn2nnnc2C(c2cccs2)N2CCCCCC2)cc1 (configuration not stated)	inconclusive: 4.47 µM [inhibitor, full curve, poor fit]
CC(C)(C)NC(=O)NCc1cc2n(n1)CCCN(C(=O)C1CCC1)C2	inactive
CCc1noc(C)c1C(=O)N1CCC(CCC(=O)NCc2cccc(C(F)(F)F)c2)CC1	inactive
Cc1ccc(NC(=O)/C=C/c2ccco2)nc1	inactive

SMILES	Potency
O=C(c1ccco1)N1N=C(c2ccc(Br)cc2)CC1c1ccc2nccnc2c1 (configuration not stated)	inconclusive: 28.2 µM [inhibitor, partial curve, poor fit]
CN(C)C(CNC(=S)NC1CC2CCC1C2)c1cccs1 (configuration not stated)	inactive
CCn1ccc(C(=O)NC2=C(C#N)CCC2)n1	inactive
Cc1cc(C)c(Nc2nc3ccccc3n3c(C)nnc23)c(C)c1	inactive
CCCc1ccc(C(=O)O)s1	inconclusive: 39.8 µM [inhibitor, partial curve, poor fit]
CCOC(=O)C(NC(=O)c1cc(F)c(F)cc1Cl)C(=O)OCC	inconclusive: 1.78 µM [inhibitor, full curve, poor fit]
COC(=O)c1cc(-c2ccco2)nc2ccccc12	active: 14.1 µM
Brc1cccc(OCCN2CCCCC2)c1	inconclusive: 0.501 µM [inhibitor, full curve, poor fit]
Nc1nnnn1CC(=O)N/N=C/c1cc([N+](=O)[O-])ccc1Cl	inactive
O=c1cc(-c2ccccc2)[nH]n1-c1nc2ccccc2[nH]1	inconclusive: 12.6 µM [inhibitor, partial curve, poor fit]
Fc1ccccc1CNC(=S)NC1CC2CCC1C2 (configuration not stated)	inconclusive: 44.7 µM [inhibitor, partial curve, poor fit]
O=C(OCc1ccc(Cl)cc1)c1cnc2ccccc2n1	inconclusive: 79.4 µM [inhibitor, single point]
O=C(CN1CCOCC1)Nc1ccc(Cl)cc1	inconclusive: 2 µM [inhibitor, full curve, poor fit]
O=C(/C=C/c1cccc(Br)c1)c1ccc(N2CCOCC2)cc1	inconclusive: 7.08 µM [inhibitor, full curve]
Cc1ccc(N/C(=C\C(=O)c2ccccc2)C(=O)O)cc1	inconclusive: 3.16 µM [inhibitor, full curve, poor fit]
O=Cc1ccc(N2CCCC2)c([N+](=O)[O-])c1	inactive
COc1ccccc1/C=C1\SC(=S)N(NS(=O)(=O)c2ccc(C)cc2)C1=O	active: 35.5 µM
O=S(=O)(c1ccc2ccccc2c1)N(Cc1ccco1)Cc1cccs1	active: 50.1 µM
COc1cc(NC(=O)c2[nH]c(C)c(C(C)=O)c2C)cc(OC)c1OC	inconclusive: 112 µM [inhibitor, single point]
Cc1ccc(NC(=O)COC(=O)/C=C/c2cccs2)cc1	inactive
COCCNC(=O)CCC(=O)NNc1nc2ccccc2c2nc(C)nn12	inactive
Cc1cc2c(-c3cccc(CO)c3)nc(-c3c(C)noc3C)cc2[nH]1	inconclusive: 31.6 µM [inhibitor, partial curve, poor fit]
CCC(=O)c1cn([C@@H](CCC(OC)OC)CC(=O)OC(C)(C)C)cc1CC	inactive

Reformatted with bars between the fields: entries from further up
SMILES | Potency
O=C(c1ccco1)N1N=C(c2ccc(Br)cc2)CC1c1ccc2nccnc2c1 (configuration not stated) | inconclusive: 28.2 µM [inhibitor, partial curve, poor fit]
CCn1ccc(C(=O)NC2=C(C#N)CCC2)n1 | inactive
CCCc1ccc(C(=O)O)s1 | inconclusive: 39.8 µM [inhibitor, partial curve, poor fit]
CCOC(=O)C(NC(=O)c1cc(F)c(F)cc1Cl)C(=O)OCC | inconclusive: 1.78 µM [inhibitor, full curve, poor fit]
COC(=O)c1cc(-c2ccco2)nc2ccccc12 | active: 14.1 µM
Brc1cccc(OCCN2CCCCC2)c1 | inconclusive: 0.501 µM [inhibitor, full curve, poor fit]
Nc1nnnn1CC(=O)N/N=C/c1cc([N+](=O)[O-])ccc1Cl | inactive
Fc1ccccc1CNC(=S)NC1CC2CCC1C2 (configuration not stated) | inconclusive: 44.7 µM [inhibitor, partial curve, poor fit]
O=C(CN1CCOCC1)Nc1ccc(Cl)cc1 | inconclusive: 2 µM [inhibitor, full curve, poor fit]
O=Cc1ccc(N2CCCC2)c([N+](=O)[O-])c1 | inactive
COc1ccccc1/C=C1\SC(=S)N(NS(=O)(=O)c2ccc(C)cc2)C1=O | active: 35.5 µM
O=S(=O)(c1ccc2ccccc2c1)N(Cc1ccco1)Cc1cccs1 | active: 50.1 µM
COc1cc(NC(=O)c2[nH]c(C)c(C(C)=O)c2C)cc(OC)c1OC | inconclusive: 112 µM [inhibitor, single point]
Cc1ccc(NC(=O)COC(=O)/C=C/c2cccs2)cc1 | inactive
Cc1cc2c(-c3cccc(CO)c3)nc(-c3c(C)noc3C)cc2[nH]1 | inconclusive: 31.6 µM [inhibitor, partial curve, poor fit]
CCC(=O)c1cn([C@@H](CCC(OC)OC)CC(=O)OC(C)(C)C)cc1CC | inactive
